In PubChem BioAssay AID485314 (National Center for Advancing Translational Sciences (NCATS), 2010):
“And” between values parts separate entries of the source, which are not always exact repeats. Equal values may be shown once. Out of some 340,000 compounds screened, about 4,500 (1.3%) were called active. The shares of active, inactive and inconclusive entries below differ from those in the screen. Calls follow the shape of the dose curve; as a rule, active = well fitted inhibition curve with a large enough effect; inconclusive = small, poorly fitted or top-dose-only effect, or another doubt; inactive = no such curve, though single readings can be large or run the other way. Where the call is inconclusive, the potency comes from a doubtful curve fit.

biological target: DNA polymerase beta (Homo sapiens) (UniProt P06746); experiment: qHTS Assay for Inhibitors of DNA Polymerase Beta; settings: Pol beta primer extension/strand displacement, fluorescence kinetic; activity change, negative = inhibition: at 114 µM (top of the series)
How it was run: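 Curves were derived by four-parameter Hill fits of normalized qHTS data. The kinetic fluorescent primer-extension read was taken at 0 and 10 min after 50 nM substrate, following a 15 min room-temperature preincubation of 10 nM enzyme with compounds.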
% is scaled to controls: 0 for no effect and ±100 for the full control effect; potency is read from the fitted curve at half-maximal effect.

SMILES	Potency	activity change, negative = inhibition
Cc1ccc(C)c(N=Cc2cc3c(cc2[N+](=O)[O-])OCO3)c1	inconclusive: 17.8 µM [inhibitor, full curve]	
O=C(Nc1ccc(COc2ccccc2)cc1)Nc1cccc(C(=O)O)c1	inconclusive: 20 µM [inhibitor, full curve]	
O=C(NC(=S)Nc1cccc([N+](=O)[O-])c1)c1ccccc1	inconclusive: 79.4 µM [inhibitor, partial curve]	
Cc1c(CCC(=O)O)c(=O)oc2c(C)c3occ(-c4ccc(Cl)cc4)c3cc12	active: 22.4 µM	
COc1ccccc1C1NC(=O)NC(C)=C1C(C)=O (stereo unspecified)	inconclusive: 28.2 µM [inhibitor, full curve]	
CCN(CC)C(=O)CSc1nc2cc3c(cc2c(=O)n1Cc1ccc(C(=O)NCCc2ccc(OC)c(OC)c2)cc1)OCO3	inactive	
CC(=O)c1ccc(S(=O)(=O)N2CCN(C(=O)/C=C/c3ccc4ccccc4n3)CC2)cc1	active: 11.2 µM	
CSc1nsc(SCC(=O)Nc2ccc(Br)cn2)n1	inconclusive: 50.1 µM [inhibitor, partial curve, poor fit]	
CC1(C)CC2(CCO1)C(Nc1ccccc1)=NC(=S)N2c1ccccc1 (stereo unspecified)	inconclusive: 10 µM [inhibitor, single point]	
Cc1n[nH]c(C)c1CCc1nc2c3ccccc3nc(SCC(=O)Nc3ccccc3F)n2n1	inconclusive: 17.8 µM [inhibitor, full curve]	
CC(NC(=O)Cc1cccs1)c1ccc2c(c1)OCO2 (stereo unspecified)	inconclusive: 28.2 µM [inhibitor, full curve]	
COc1ccc(CCNC(=O)c2cccc(NC3=NC4CS(=O)(=O)CC4S3)c2)c(OC)c1 (stereo unspecified)	inconclusive: 0.224 µM [inhibitor, full curve, poor fit]	
CCN(CC)C(=O)CC(c1ccc(N(C)C)cc1)c1c(OC)cc(OC)c2c(-c3ccccc3)cc(=O)oc12 (stereo unspecified)	inconclusive: 8.91 µM [inhibitor, partial curve]	
Cc1[nH]c(=O)[nH]c(=O)c1C1N2CC3(C(C)C)CN1CC(C(C)C)(C2)C3=O (stereo unspecified)	inconclusive: 89.1 µM [inhibitor, single point]	
CCOc1cc(-n2cnnn2)c(OCC)cc1NC(=O)c1cnccn1	inconclusive: 11.2 µM [inhibitor, full curve, poor fit]	
COCC(=O)N(C)C1(c2nnnn2CCOC(=O)Nc2cccc3ccccc23)CCCC1	inconclusive: 25.1 µM [inhibitor, full curve]	
N#Cc1ccc(-c2cccs2)nc1SCc1ccc(Cl)cc1Cl	inactive	
NC(=S)n1[nH]c(-c2ccc([N+](=O)[O-])cc2)c(N=Nc2cccc(Cl)c2)c1=O	inconclusive: 50.1 µM [inhibitor, partial curve]	
N#CC(C(=O)Nc1ccc(Cl)c(Cl)c1)=C1Nc2ccccc2N1	inconclusive: 112 µM [inhibitor, partial curve, poor fit]	
CCOC(=O)C1=C(C)N=C2SC=C(C)N2C1c1ccc(OC)cc1 (stereo unspecified)	inactive	
Nc1nc2c(-c3ccc(Br)cc3)nnn2c2ccccc12	inconclusive: 35.5 µM [inhibitor, full curve]	

SMILES	Potency	activity change, negative = inhibition
CCOCCCNC(=O)/C(C#N)=C/c1cc(OC)c(O)c([N+](=O)[O-])c1	inactive	
C/C(=N\NC(=S)NCC(C)(C)C)c1cc(F)cc(F)c1O	inconclusive: 89.1 µM [inhibitor, single point]	
Cc1cc(C)cc(C(=O)Nc2ccc(-c3nc4ncccc4o3)cc2)c1	active: 14.1 µM	
CCc1ccc(CNC(=O)Cc2ccc(NC(=O)N3CCSc4ncccc43)cc2)cc1	inactive	
Cc1cc(NS(=O)(=O)c2ccc(NC(=O)c3c(F)c(F)c(F)c(F)c3F)cc2)nc(C)n1	inconclusive: 5.01 µM [inhibitor, full curve, poor fit]	
OC1CN=C2C=CC=CN2C1 (stereo unspecified)	inconclusive: 100 µM [inhibitor, single point]	
CCN(CC)CCCC(C)Nc1c2ccc(Cl)cc2nc2ccc(OC)cc12 (stereo unspecified)	active: 7.08 µM and active: 15.8 µM	
COC(=O)c1[nH]c2ccc(C)cc2c1NC(=O)CN1CCCc2ccccc21	inconclusive: 22.4 µM [inhibitor, single point]	
CC(C)C[C@H](NC(=O)c1nc[nH]c1C(=O)N[C@@H](CCCCNC(=O)OC(C)(C)C)C(=O)OC(C)(C)C)C(=O)OC(C)(C)C	inconclusive: 4.47 µM [inhibitor, full curve]	
CCOC(=O)c1ccc(NC(=O)CCCc2nc(-c3ccccc3Cl)no2)cc1	inconclusive: 79.4 µM [inhibitor, single point]	
Cc1ccc(NC(=O)c2cnn3c(C(F)F)cc(-c4ccccc4)nc23)c(C)c1	inconclusive: 100 µM [inhibitor, single point]	
O=C(COc1ccc([N+](=O)[O-])cc1)Nc1cccnc1	inconclusive: 79.4 µM [inhibitor, single point]	
COc1ccc(N2CCN(C(=O)CCc3c(C)nn(-c4ccc(N5CCCC5)nn4)c3C)CC2)cc1	inactive	
O=C(O)c1cccc(-c2ccc(/C=C3/SC(=Nc4ccccc4)N(Cc4cccnc4)C3=O)o2)c1		inconclusive: -135% [inhibitor]
COc1cccc(NC(=S)NNC(=O)Cn2nc(C(F)(F)F)cc2C)c1	inconclusive: 63.1 µM [inhibitor, single point]	
COc1ccc(S(=O)(=O)N2CCN(c3ccccc3F)CC2)cc1-c1noc(C)n1	active: 8.91 µM	
N#Cc1ccccc1NC(=O)COC(=O)c1ccc(F)cc1F	inconclusive: 4.47 µM [inhibitor, single point]	
COC(=O)c1ccc(Oc2coc3cc(OCc4cnn(-c5ccccc5)c4)ccc3c2=O)cc1	inconclusive: 39.8 µM [inhibitor, partial curve]	
NC(=O)c1cc(S(=O)(=O)NCCc2ccc(Cl)cc2)cs1		inconclusive: -30.5% [inhibitor]
CN(CC(=O)NCCC1=CCCCC1)S(=O)(=O)c1ccc2c(c1)c(=O)n(C)c(=O)n2C	inactive	

Quoted from the listing.
Under Potency, CCN(CC)CCCC(C)Nc1c2ccc(Cl)cc2nc2ccc(OC)cc12 (stereo unspecified) reads active: 7.08 µM and active: 15.8 µM
Under Potency, N#Cc1ccccc1NC(=O)COC(=O)c1ccc(F)cc1F reads inconclusive: 4.47 µM [inhibitor, single point]
